Values joined by “and” are separate entries in the source; they are usually repeats but may differ in a detail not shown here. Identical values can stand only once. Counter-ions that a name gives are not always drawn. Some of the results follow. This data set is noisy: repeats of one test often differ as much as different tests do.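 HEK293T cells were given each compound shortly before transfection with a reporter in which red mCherry is followed by the SARS-CoV-2 frameshift element and then GFP in the −1 frame, so GFP appears only after frameshifting.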
System: HEK293T
Assay: percent viability (nuclei count) relative to control; higher = more viable cells
Conditions: 10 µM; 24 h

## CC(=O)OCC(=O)[C@@]1(O)CC[C@H]2[C@@H]3CCC4=CC(=O)C=C[C@]4(C)[C@H]3[C@@H](O)C[C@@]21C
  percent viability: 203%

## CNCCCC1c2ccccc2C=Cc2ccccc21 [protriptyline]
  percent viability: 229%

## O=C(O)Cc1ccccc1Nc1c(Cl)cccc1Cl [diclofenac]
  percent viability: 246% and 146%

## COc1ccccc1OCC(O)COC(N)=O (stereo not given) [methocarbamol]
  percent viability: 265%

## CC(C)[C@@H]1NC(=O)[C@H](CCCCN)NC(=O)[C@@H](Cc2c[nH]c3ccccc23)NC(=O)[C@H](Cc2ccc(O)cc2)NC(=O)[C@H](C)N(C)C(=O)[C@H](Cc2ccccc2)NC1=O [seglitide]
  percent viability: 187%

## CCOc1ccc(Cc2cc([C@@H]3O[C@H](CO)[C@@H](O)[C@H](O)[C@H]3O)ccc2Cl)cc1 [Dapagliflozin]
  percent viability: 298%

## CCC=CCC=CCC=CCC=CCC=CCC=CCCC(=O)O
  percent viability: 50.3%

## N#Cc1ccc(C(c2ccc(C#N)cc2)n2cncn2)cc1 [letrozole]
  percent viability: 136% and 269%

## CS(=O)(=O)CCNCc1ccc(-c2ccc3ncnc(Nc4ccc(OCc5cccc(F)c5)c(Cl)c4)c3c2)o1 [lapatinib]
  percent viability: 236%

## c1cnc2cc3c(cc2n1)[C@@H]1CNC[C@H]3C1 [varenicline]
  percent viability: 191%

## C[C@]1(Cn2ccnn2)[C@H](C(=O)O)N2C(=O)C[C@H]2S1(=O)=O [tazobactam]
  percent viability: 187%

## COC(=O)[C@@H](N)Cc1ccc(O)c(O)c1 [melevodopa]
  percent viability: 156%

## CCOC(=O)NNC(C)c1ccccc1 (stereo not given) [carbenzide]
  percent viability: 121%

## NCCc1ccc(O)c(O)c1 [dopamine]
  percent viability: 198%

## CCCCCNC(=O)c1coc([C@H]2[C@@H](Cc3ccccc3CCC(=O)O)[C@@H]3CC[C@H]2O3)n1 [ifetroban]
  percent viability: 103%

## Cc1cc(-n2c(=O)[nH]c(=O)n(C)c2=O)ccc1Oc1ccc(SC(F)(F)F)cc1 [toltrazuril]
  percent viability: 294%

## CO[C@H]1/C=C/O[C@@]2(C)Oc3c(C)c(O)c4c(O)c(c5c(nc6cc(C)ccn65)c4c3C2=O)NC(=O)/C(C)=C\C=C\[C@H](C)[C@H](O)[C@@H](C)[C@@H](O)[C@@H](C)[C@H](OC(C)=O)[C@@H]1C
  percent viability: 360%

## C=C(C)[C@@H]1CC[C@]2(C(=O)O)CC[C@]3(C)[C@H](CC[C@@H]4[C@@]5(C)CC[C@H](OC(=O)CC(C)(C)C(=O)O)C(C)(C)[C@@H]5CC[C@]43C)[C@@H]12 [bevirimat]
  percent viability: 73.4%

## CC[C@@H]1C(=O)OC[C@@H]1Cc1cncn1C [Pilocarpine·HCl]
  percent viability: 284%

## C/C=C/C(=O)N(CCC)C(CC)C(=O)N(C)C (stereo not given) [cropropamide]
  percent viability: 81.1%

## NCC[C@H](O)C(=O)N[C@@H]1C[C@H](N)[C@@H](O[C@H]2O[C@H](CN)CC[C@H]2N)[C@H](O)[C@H]1O[C@H]1O[C@H](CO)[C@@H](O)[C@H](N)[C@H]1O [arbekacin]
  percent viability: 274%

## O=C(O)COCCN1CCN([C@H](c2ccccc2)c2ccc(Cl)cc2)CC1
  percent viability: 88.5%

## O=C1NC(=O)C(c2ccccc2)(c2ccccc2)N1 [phenytoin]
  percent viability: 119% and 206%

## Clc1ccccc1CN1CCc2sccc2C1
  percent viability: 321%

## O=C(OCCOCCO)c1ccccc1Nc1cccc(C(F)(F)F)c1 [etofenamate]
  percent viability: 217%

## COc1cc(C(=O)N2CCOCC2)cc(OC)c1OC [trimetozine]
  percent viability: 246%

## CCC(C(=O)OCCN1CCOC(c2ccccc2)C1C)c1ccccc1 (stereo not given) [fenbutrazate]
  percent viability: 262%

## Clc1ccc(CSC(Cn2ccnc2)c2ccc(Cl)cc2Cl)cc1 (stereo not given) [sulconazole]
  percent viability: 123%

## C[C@@H]1C[C@H]2[C@@H]3C[C@H](F)C4=CC(=O)C=C[C@]4(C)[C@@]3(F)[C@@H](O)C[C@]2(C)[C@@]1(O)C(=O)CO [flumetasone]
  percent viability: 103% and 306%

## NOCc1ccc(Br)c(O)c1 [brocresine]
  percent viability: 289%

## Cc1onc(NS(=O)(=O)c2ccccc2-c2ccc(-c3ncco3)cc2CN(C)C(=O)CC(C)(C)C)c1C [edonentan]
  percent viability: 134%

## CC=CC(=O)N(CC)c1ccccc1C [Crotamiton]
  percent viability: 146%

## CC(C)C(=O)Nc1ccc([N+](=O)[O-])c(C(F)(F)F)c1 [flutamide]
  percent viability: 105% and 128%

## O=C(O)c1ccccc1-c1ccc(C(F)(F)F)cc1 [xenalipin]
  percent viability: 92.2%

## CS(=O)(=O)c1ccc([C@@H](O)[C@@H](CO)NC(=O)C(Cl)Cl)cc1 [thiamphenicol]
  percent viability: 278%

Source: the supplement of paper PMC8256030
